Measurements: PubChem BioAssay AID1347075 (National Center for Advancing Translational Sciences (NCATS), 2019)
Where “and” joins values, the source holds several entries; their conditions need not be identical. Equal entries are not always repeated. The campaign covered roughly 400,000 compounds. About 5,500 (1.4%) were called active. Inconclusive results, whose numbers are uncertain, are shown with a selection of clear calls. Calls follow the shape of the dose curve; as a rule, active = well fitted cell-killing curve with a large enough effect; inconclusive = small, poorly fitted or top-dose-only effect, or effect the other way; inactive = flat fitted curve, though single readings scatter. Where the call is inconclusive, the potency comes from a doubtful curve fit.

experiment: qHTS assay for MDR1-selective chemotherapeutics: Primary screen using the parental adenocarcinoma cell KB-3-1; details: KB-3-1 viability, CellTiter-Glo ATP luminescence, 72 h; activity change, negative = cytotoxic: at 46.1 µM (top of the series); also: nearly all actives have a fitted effect of over 60% in size
Outline: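 Cytotoxicity measured as CellTiter-Glo luminescence after 72 h at 37 C. Compound titrations were pinned onto drug-naive KB-3-1 parental adenocarcinoma cells grown in DMEM with 10% FBS, and normalized data fitted to concentration-response curves.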
% is scaled to controls: 0 for no effect and ±100 for the full control effect; potency is read from the fitted curve at half-maximal effect.

Row | SMILES | Potency | activity change, negative = cytotoxic
1 | O=C(CSc1ccsc1[N+](=O)[O-])NCc1ccccc1 | active: 5.8 µM | 
2 | COc1ccc(C(=O)NCCc2cc3ccc(C)c(C)c3[nH]c2=O)cc1OC | inactive | 
3 | COC/C=C/C1=CC2=CC(=O)C(C)(OC(=O)c3cnc4ccccc4n3)C(=O)C2=CN1Cc1ccccc1 (stereo not given) | inconclusive: 29.1 µM [cytotoxic, single point] | 
4 | C[C@@H]1CN([C@H](C)CO)C(=O)c2cc(NC(=O)C3CCCCC3)ccc2O[C@@H]1CN(C)Cc1ccc(C(F)(F)F)cc1 | inconclusive: 23.1 µM [cytotoxic, single point] | 
5 | COc1ccc(-c2nc3ccccn3c2Cl)cc1 | inconclusive: 29.1 µM [cytotoxic, single point] | 
6 | CCOC1=C2[C@@H](CN(S(=O)(=O)c3ccc(C)cc3)[C@H]2c2cccc3ccccc23)[C@H]2C(=O)N(C)C(=O)[C@H]2C1 | inactive | 
7 | O=C(OCc1cccc(Cl)c1)c1cc(S(=O)(=O)N2CCCCC2)ccc1N1CCOCC1 |  | inconclusive: -32.9% [cytotoxic]
8 | O=C(CC1(O)C(=O)N(Cc2ccccc2)c2ccccc21)c1ccncc1 (stereo not given) | inconclusive: 29.1 µM [cytotoxic, single point] | 
9 | COc1ccc(C(=O)Nc2cccc(-c3ccc(N4CCOCC4)nn3)c2)cc1 | inconclusive: 5.8 µM [rising, partial curve] | 
10 | CCN(N=O)c1ccc(/C=C/c2ccnc3ccccc23)cc1 | inconclusive: 29.1 µM [cytotoxic, single point] | 
11 | Cc1ccccc1C[n+]1cccc2ccccc21 | inconclusive: 16.4 µM [cytotoxic, single point] | 
12 | CCCC(=Nc1ccccc1OC)C1=C(O)CC(c2ccccc2)CC1=O (stereo not given) | inactive | 
13 | CCN(C(=O)COC(=O)c1sccc1C)c1c(N)n(Cc2ccccc2)c(=O)[nH]c1=O | inconclusive: 23.1 µM [rising, single point] | 
14 | C1CCN(c2nc3nonc3nc2N2CCCC2)C1 | inactive | 
15 | C=CCNC(=O)COCc1cc(-c2ccc3c(c2)OCO3)on1 | inactive | 
16 | Cc1ccc(OCC(=O)N(Cc2nnc(-c3ccccc3Cl)o2)C2CC2)cc1C | inactive | 
17 | Cc1ccc(NC(=O)CSc2ncccc2C(=O)Oc2cccc([N+](=O)[O-])c2)cc1Cl | inactive | 
18 | Cc1ccc(C(=O)OCC(=O)NC2CCCC2)cc1 | inactive | 
19 | Cc1ccc(NC(=O)c2ccc(C#CC3(O)CCCCC3)cc2)cc1C | inactive | 
20 | COc1cc(-c2nc3cnccn3c2Nc2ccccc2)ccc1O | inconclusive: 20.6 µM [cytotoxic, partial curve, poor fit] | 
21 | O=C(N/N=C/C(Cl)=C\c1ccccc1)c1ccco1 | inactive | 
22 | COc1ccc(-n2c(COc3cccc4ccccc34)nnc2SCC#N)cc1 | inconclusive: 16.4 µM [cytotoxic, partial curve] | 
23 | Cc1ccc(CN(CC(=O)NCc2ccccn2)S(=O)(=O)c2ccccc2)cc1 | inactive | 
24 | NC(=O)CSc1nc2scc(-c3ccco3)c2c(=O)n1-c1ccccc1 | inactive | 

Row | SMILES | Potency | activity change, negative = cytotoxic
25 | O=C(CCCN1C(=O)/C(=C/c2ccccc2Cl)SC1=S)Nc1cccnc1 | inconclusive: 29.1 µM [cytotoxic, single point] | 
26 | COc1cc(OC)cc(C(=O)NC(=S)N2CCN(c3ccc(C(F)(F)F)cc3[N+](=O)[O-])CC2)c1 | inconclusive: 25.9 µM [cytotoxic, single point] | 
27 | COc1cccc(CN2CCNC(=O)C2CC(=O)NC2CCCCCCC2)c1 (stereo not given) | inconclusive: 9.2 µM [cytotoxic, partial curve, poor fit] | 
28 | O=C(NN1C(=O)C2C3C=CC(C4CC34)C2C1=O)c1cccc(Br)c1 (stereo not given) | inconclusive: 23.1 µM [cytotoxic, partial curve, poor fit] | 
29 | CCN1CCN(Cc2ccc(NC(=O)c3cc(NC(=O)c4cncc(-c5cccs5)c4)cc(OC)c3)cc2C(F)(F)F)CC1 | inconclusive: 29.1 µM [cytotoxic, single point] and inconclusive: 23.1 µM [cytotoxic, single point] | 
30 | COc1ccc(C(=O)NCCS(=O)(=O)N(C)C2CCCCC2)cc1 | inactive | 
31 | Cc1cccc(C(=O)Nc2scc(-c3ccc(Br)cc3)c2C(=O)O)c1 | inconclusive: 1.84 µM [cytotoxic, partial curve, poor fit] | 
32 | O=C(CN1CCN(S(=O)(=O)c2ccc(F)cc2)CC1)c1ccc(O)c(O)c1 | inconclusive: 13 µM [rising, partial curve, poor fit] | 
33 | CCCCN(Cc1cc2cc(OC)ccc2[nH]c1=O)S(=O)(=O)c1ccc(C)cc1 | inconclusive: 23.1 µM [cytotoxic, partial curve] | 
34 | CSc1nnc(C2CCN(CC(=O)Nc3ccccc3N3CCOCC3)CC2)n1C(C)C | inactive | 
35 | c1ccc(N2[C@@H]3c4ccccc4C[C@H]2c2ccccc23)cc1 | inconclusive: 32.6 µM [cytotoxic, single point] | 
36 | CCOC(=O)c1cccc(NS(=O)(=O)c2cc(Br)cc3c2N(C(=O)C2CC2)CC3)c1 | active: 20.6 µM | 
37 | COc1ccc(S(=O)(=O)N2CCc3ccccc32)cc1NC(C)=O | active: 23.1 µM | 
38 | COc1cc(NC(=S)N2CCN(C/C=C/c3ccccc3)CC2)cc(OC)c1 | inactive | 
39 | COc1cc2nc(-c3ccccc3C)oc(=O)c2cc1OC | inconclusive: 6.51 µM [cytotoxic, full curve] | 
40 | COc1ccc(CNC(=O)CCS(=O)(=O)c2cc(Br)cc3c2N(C(=O)C2CC2)CC3)cc1 | inactive | 
41 | Cc1nn(C)c(C)c1NS(=O)(=O)c1ccc(N2CCCC2=O)cc1 | inconclusive: 29.1 µM [cytotoxic, single point] | 
42 | Cc1c(C(O)CN2CCN(Cc3ccc4c(c3)OCO4)CC2)c2ccccc2n1C (stereo not given) | inactive | 
43 | CC(C(=O)NCC(=O)Nc1ccc(F)c(F)c1F)N1CCN(c2ccc(O)cc2)CC1 (stereo not given) | inconclusive: 11.6 µM [cytotoxic, partial curve] | 
44 | COc1cc2c(cc1OC)CN(C(=O)c1nn(Cc3ccccc3)c(=O)c3ccccc13)CC2 | inactive | 
45 | C=CCNc1ncnc2c1[nH]c1ccc(Cl)cc12 | active: 8.2 µM | 
46 | COc1ccc(C(C)=O)cc1CC1(C)C(=O)Nc2ccc(-c3cccc(C(F)(F)F)c3)cc21 (stereo not given) | inconclusive: 23.1 µM [cytotoxic, single point] | 
47 | COc1ccccc1-c1ccc2c(c1)C(C)(Cc1cccc(F)c1)C(=O)N2 (stereo not given) | inconclusive: 29.1 µM [cytotoxic, single point] | 
48 | CSc1ccc(S(=O)(=O)Nc2ccc3c(c2)OCCO3)cc1 | inconclusive: 29.1 µM [cytotoxic, single point] | 

A different layout for part of the listing above.
Row,SMILES,Potency,"activity change, negative = cytotoxic"
25,O=C(CCCN1C(=O)/C(=C/c2ccccc2Cl)SC1=S)Nc1cccnc1,"inconclusive: 29.1 µM [cytotoxic, single point]",
26,COc1cc(OC)cc(C(=O)NC(=S)N2CCN(c3ccc(C(F)(F)F)cc3[N+](=O)[O-])CC2)c1,"inconclusive: 25.9 µM [cytotoxic, single point]",
27,COc1cccc(CN2CCNC(=O)C2CC(=O)NC2CCCCCCC2)c1 (stereo not given),"inconclusive: 9.2 µM [cytotoxic, partial curve, poor fit]",
28,O=C(NN1C(=O)C2C3C=CC(C4CC34)C2C1=O)c1cccc(Br)c1 (stereo not given),"inconclusive: 23.1 µM [cytotoxic, partial curve, poor fit]",
29,CCN1CCN(Cc2ccc(NC(=O)c3cc(NC(=O)c4cncc(-c5cccs5)c4)cc(OC)c3)cc2C(F)(F)F)CC1,"inconclusive: 29.1 µM [cytotoxic, single point] and inconclusive: 23.1 µM [cytotoxic, single point]",
30,COc1ccc(C(=O)NCCS(=O)(=O)N(C)C2CCCCC2)cc1,inactive,
31,Cc1cccc(C(=O)Nc2scc(-c3ccc(Br)cc3)c2C(=O)O)c1,"inconclusive: 1.84 µM [cytotoxic, partial curve, poor fit]",
32,O=C(CN1CCN(S(=O)(=O)c2ccc(F)cc2)CC1)c1ccc(O)c(O)c1,"inconclusive: 13 µM [rising, partial curve, poor fit]",
33,CCCCN(Cc1cc2cc(OC)ccc2[nH]c1=O)S(=O)(=O)c1ccc(C)cc1,"inconclusive: 23.1 µM [cytotoxic, partial curve]",
34,CSc1nnc(C2CCN(CC(=O)Nc3ccccc3N3CCOCC3)CC2)n1C(C)C,inactive,
35,c1ccc(N2[C@@H]3c4ccccc4C[C@H]2c2ccccc23)cc1,"inconclusive: 32.6 µM [cytotoxic, single point]",
36,CCOC(=O)c1cccc(NS(=O)(=O)c2cc(Br)cc3c2N(C(=O)C2CC2)CC3)c1,active: 20.6 µM,
37,COc1ccc(S(=O)(=O)N2CCc3ccccc32)cc1NC(C)=O,active: 23.1 µM,
38,COc1cc(NC(=S)N2CCN(C/C=C/c3ccccc3)CC2)cc(OC)c1,inactive,
39,COc1cc2nc(-c3ccccc3C)oc(=O)c2cc1OC,"inconclusive: 6.51 µM [cytotoxic, full curve]",
40,COc1ccc(CNC(=O)CCS(=O)(=O)c2cc(Br)cc3c2N(C(=O)C2CC2)CC3)cc1,inactive,

Continuation:

Row | SMILES | Potency | activity change, negative = cytotoxic
49 | S=c1cn[nH]c2ccccc12 | inactive | 
50 | Cc1ccnc(NC(=O)C2CCN(S(=O)(=O)c3c(C)c(C)cc(C)c3C)CC2)c1 | inconclusive: 29.1 µM [cytotoxic, single point] | 
51 | CC(OC(=O)/C=C/c1ccco1)C(=O)Nc1cccc([N+](=O)[O-])c1 (stereo not given) | inconclusive: 29.1 µM [cytotoxic, single point] | 
52 | CC1=CC(C)(C)n2c(O)c(C3=NC(=S)NC3=O)c3cc(OC(=O)c4cccc5ccccc45)cc1c32 | inconclusive: 16.4 µM [cytotoxic, single point] | 
53 | Clc1ccc(C2=Nn3c(nnc3-c3n[nH]c4c3CCC4)SC2)cc1 | active: 3.66 µM | 
54 | O=C(C1=C[C@@H](c2csc3ccccc23)C[C@@H](OCc2ccc(CO)cc2)O1)N1CCN(Cc2ccccc2)CC1 | inactive | 
55 | CCOC(=O)CN(C(=O)COc1nc(-c2ccccc2)cc(C)c1C#N)c1ccccc1 | inconclusive: 29.1 µM [rising, partial curve, poor fit] | 
56 | Cc1cscc1-c1ccc(C(=O)Nc2c(C)cccc2C)o1 | inconclusive: 29.1 µM [cytotoxic, single point] | 
57 | O=c1c2cc(Cl)ccc2nc(-c2ccc([N+](=O)[O-])cc2)n1O | inconclusive: 18.4 µM [cytotoxic, single point] | 
58 | CCCCNc1ncnc2c1cnn2-c1ccc(Cl)cc1 | active: 1.64 µM | 
59 | Cc1ccc(N(CC(=O)Nc2cc(Cl)ccc2Oc2ccccc2)S(C)(=O)=O)cc1C | inconclusive: 18.4 µM [cytotoxic, single point] | 
60 | CC1CCN(S(=O)(=O)c2ccc(NC(=O)CN3CCN(c4ccccc4)CC3)cc2)CC1 | inactive | 
61 | COc1ccc(CC(=O)NCC(c2ccc(N(C)C)cc2)N2CCOCC2)cc1OC (stereo not given) | inactive | 
62 | Brc1cc2c(cc1C1Nc3ccccc3C3C=CCC31)OCO2 (stereo not given) | inconclusive: 20.6 µM [cytotoxic, single point] | 
63 | CCC(C)(C)c1ccc(OCCCC[n+]2ccc(C)cc2)c(C(C)(C)CC)c1 | active: 11.6 µM | 
64 | CCCCNC(=O)c1ccc2c(c1)ncn2C1CCCC1 | inactive | 
65 | Cc1ccc(NC(=O)CNC(=O)c2ccco2)cc1 | inactive | 
66 | CCCc1c(-c2ccc(Cl)cc2)ncn1CCc1ccccc1OC | inconclusive: 29.1 µM [cytotoxic, single point] | 
67 | CCOC(=O)c1c(NC(=O)CSc2ncnc3[nH]ncc23)sc2c1CCC(C)C2 (stereo not given) | inconclusive: 14.6 µM [cytotoxic, partial curve, poor fit] | 
68 | Cc1nc2cccnc2n1C1CCN(C(=O)Nc2ccccc2C(F)(F)F)CC1 | inactive | 
69 | CCOC(=O)c1ccc(Nc2cc(C)nc3ncnn23)cc1 | inconclusive: 23.1 µM [rising, single point] | 
70 | COC(=O)c1scc(-c2ccc(C)cc2)c1S(=O)(=O)Nc1ccc(NC(C)=O)cc1 | inconclusive: 25.9 µM [cytotoxic, partial curve, poor fit] | 
